Results from paper PMC6524796.
No constants are given. Whether binding was seen depends on the method and setting. In cells and extracts the contact can be indirect. Some entries that bind do so weakly or less than the wild type.

Experiments:
[1] = target: endogenous TDP-43 (human (endogenous in HEK293)) (UniProt Q13148); assay: co-IP; immunoprecipitation from HEK293 cell lysates with a specific anti-TDP-43 antibody, non-specific IgG as control; Western blot with anti-LonP1
[2] = target: Myc-tagged A315T-mutant TDP-43 (human) (UniProt Q13148); assay: co-IP; immunoprecipitation with a monoclonal anti-Myc antibody from lysates of HEK293 stable inducible cells (vector control, Myc-tagged Wt or A315T TDP-43), 36 hr after Tet-induction; Western blot with anti-LonP1
[3] = target: Myc-tagged wild type TDP-43 (human) (UniProt Q13148); assay: as above

binding [1]: binds
binding [2]: binds
binding [3]: binds
B1: LonP1 (endogenous) (enzyme, UniProt P36776 68-959)
chain: FWEASSRGGGAFSGGEDASEGGAEEGAGGAGGSAGAGEGPVITALTPMTIPDVFPHLPLIAITRNPVFPRFIKIIEVKNKKLVELLRRKVRLAQPYVGVFLKRDDSNESDVVESLDEIYHTGTFAQIHEMQDLGDKLRMIVMGHRRVHISRQLEVEPEEPEAENKHKPRRKSKRGKKEAEDELSARHPAELAMEPTPELPAEVLMVEVENVVHEDFQVTEEVKALTAEIVKTIRDIIALNPLYRESVLQMMQAGQRVVDNPIYLSDMGAALTGAESHELQDVLEETNIPKRLYKALSLLKKEFELSKLQQRLGREVEEKIKQTHRKYLLQEQLKIIKKELGLEKDDKDAIEEKFRERLKELVVPKHVMDVVDEELSKLGLLDNHSSEFNVTRNYLDWLTSIPWGKYSNENLDLARAQAVLEEDHYGMEDVKKRILEFIAVSQLRGSTQGKILCFYGPPGVGKTSIARSIARALNREYFRFSVGGMTDVAEIKGHRRTYVGAMPGKIIQCLKKTKTENPLILIDEVDKIGRGYQGDPSSALLELLDPEQNANFLDHYLDVPVDLSKVLFICTANVTDTIPEPLRDRMEMINVSGYVAQEKLAIAERYLVPQARALCGLDESKAKLSSDVLTLLIKQYCRESGVRNLQKQVEKVLRKSAYKIVSGEAESVEVTPENLQDFVGKPVFTVERMYDVTPPGVVMGLAWTAMGGSTLFVETSLRRPQDKDAKGDKDGSLEVTGQLGEVMKESARIAYTFARAFLMQHAPANDYLVTSHIHLHVPEGATPKDGPSAGCTIVTALLSLAMGRPVRQNLAMTGEVSLTGKILPVGGIKEKTIAAKRAGVTCIVLPAENKKDFYDLAAFITEGLEVHFVEHYREIFDIAFPDEQAEALAVER
